Data as given in patent publication US11219636B2, “Compositions and methods for treating cancer” (priority 2015, dated 2022).
At least one compound was matched to its structure with a doubt left.

Legend:
HCT116 cells = test: MTT cell-viability assay in HCT116 cells; format: cell-based, human; conditions: 1 μg/ml tetracycline, mutated RAS cells, MTT 72 hours
HT29 cells = test: Fluorescence microscopy of MazE (GFP) expression with or without tetracycline; format: cell-based, human; conditions: PY4-TA 10 MOI, 1 μg/ml tetracycline, 72 hours

CN(C)[C@@H]1C(O)=C(C(N)=O)C(=O)[C@@]2(O)C(O)=C3C(=O)c4c(O)cccc4[C@@](C)(O)[C@H]3C[C@@H]12 [tetracycline]
viability of Ad-Py4-TA infected cells with versus without tetracycline (HCT116 cells): the same | expression of the antitoxin (green fluorescence) (HT29 cells): increased
